This passage reports normalized growth results from the supplement of paper PMC6331611.

± gives the standard deviation of the averaged measurements. The full ranking holds about 1,600 compounds; the median of “normalized growth (OD600, IQM-normalized) in LPM” is about 1, and the lowest 2% start at about 0.014. The list shows a part of the results.

The subject of the test is Salmonella enterica serovar Typhimurium SL1344. Briefly: normalized growth (OD600, IQM-normalized) in LPM (fraction of plate interquartile mean); higher = more bacterial growth (less inhibition). The following applies: LPM pH 5.8; 10 µM; 16 h.
Consider `N=C(N)NCC1COC2(CCCCC2)O1` (centres undefined), for which the normalized growth is 0.863 ± 0.015. The same measure for `CC1(C)OC(=O)NC1=O`: 0.957 ± 0.043. The value for `Cc1ncc(CSSCc2cnc(C)c(O)c2CO)c(CO)c1O` was 1.08 ± 0.061; that for `CC(=O)Oc1cccc2c1C(=O)c1c(OC(C)=O)cc(C(=O)O)cc1C2=O` was 0.798 ± 0.022; that for `N=C(N)NC(=N)N1CCOCC1` was 1.09 ± 0.092.

`C=C1C[C@H]2[C@@H]3C=C(C)C4=CC(=O)CC[C@]4(C)[C@H]3CC[C@]2(C)[C@@]1(OC(C)=O)C(C)=O` displayed a normalized growth of 1.02 ± 0.015. `N[C@H]1C(O)O[C@H](CO)[C@@H](O)[C@@H]1O` (some centres undefined) gave a normalized growth of 0.974 ± 0.045. Turning to `Nc1ccc(C(=O)Oc2ccccc2)c(O)c1`, the normalized growth is 1.07 ± 0.026. The same measure for `CNNCc1ccc(C(=O)NC(C)C)cc1`: 1.05 ± 0.025.

With `O=c1[nH]c(=O)n([C@H]2C[C@H](O)[C@@H](CO)O2)cc1F`, the normalized growth is 0.0114 ± 0.00023. In turn, `CN(C)CCC=C1c2ccccc2C=Cc2ccccc21` registered a normalized growth of 0.996 ± 0.028. Consider `CN(C)CCc1c[nH]c2ccc(C[C@H]3COC(=O)N3)cc12`, for which the normalized growth stood at 1 ± 0.036. The value for `NS(=O)(=O)c1cc2c(cc1Cl)NCNS2(=O)=O` was 1 ± 0.035; that for `Nc1ncnc2c1ncn2[C@@H]1O[C@H](COP(=O)(O)O)[C@@H](O)[C@H]1O` was 1.05 ± 0.027; that for `CCC(=O)O[C@H]1[C@H](O[C@@H]2[C@@H](C)[C@H](O[C@H]3C[C@@](C)(OC)[C@@H](O)[C@H](C)O3)[C@@H](C)C(=O)O[C@H](CC)[C@@](C)(O)[C@H](O)[C@@H](C)C(=O)[C@H](C)C[C@@]2(C)O)O[C@H](C)C[C@@H]1N(C)C` was 0.819 ± 0.087. `CC(c1cc2ccccc2s1)N(O)C(N)=O` (centres undefined) had a normalized growth of 1 ± 0.034. The value for `CC(=O)Oc1cc(C(C)C)c(OCCN(C)C)cc1C` was 0.91 ± 0.02; that for `O=C(O)c1cc(O)c2c(c1)[C@H]([C@H]1c3cc(C(=O)O)cc(O)c3C(=O)c3c(O[C@@H]4O[C@H](CO)[C@@H](O)[C@H](O)[C@H]4O)cccc31)c1cccc(O[C@@H]3O[C@H](CO)[C@@H](O)[C@H](O)[C@H]3O)c1C2=O` was 1.06 ± 0.032. The compound `CN(C)CCCOc1nn(Cc2ccccc2)c2ccccc12` showed a normalized growth of 0.976 ± 0.065. In the case of `CC(=O)OCC(=O)[C@@]1(O)CC[C@H]2[C@@H]3CCC4=CC(=O)CC[C@]4(C)[C@H]3C(=O)C[C@@]21C`, the normalized growth was found to be 0.985 ± 0.068. As for `COc1cc(C(=O)N2CCOCC2)cc(OC)c1OC`, the normalized growth stood at 0.985 ± 0.098. The value for `CC(=O)OCC(=O)[C@@]1(O)CC[C@H]2[C@@H]3CCC4=CC(=O)C=C[C@]4(C)[C@@]3(F)[C@@H](O)C[C@@]21C` was 0.823 ± 0.054. The same measure for `CCCCC(=O)O[C@]1(C(=O)CO)[C@@H](C)C[C@H]2[C@@H]3CCC4=CC(=O)C=C[C@]4(C)[C@@]3(F)[C@@H](O)C[C@@]21C`: 1.51 ± 0.2; for `S=C=Nc1ccc(N=C=S)cc1`: 1.07 ± 0.049; for `OC[C@@H](O)[C@@H](O)[C@H](O)[C@@H](O)CO`: 0.929 ± 0.028. The same measure for `C#C[C@]1(O)CC[C@H]2[C@@H]3[C@H](C)CC4=C(CCC(=O)C4)[C@H]3CC[C@@]21C`: 0.987 ± 0.048; for `CC1CCC(NC(=O)N(CCCl)N=O)CC1` (centres undefined): 1.11 ± 0.02.

Compound `Oc1ccc(O)cc1` displayed a normalized growth of 0.997 ± 0.056. The same measure for `COc1cc2nc(N3CCN(C(=O)C4CCCO4)CC3)nc(N)c2cc1OC` (centres undefined): 0.998 ± 0.019; for `Nc1ccc(S(=O)(=O)Nc2ccc(Cl)nn2)cc1`: 1.09 ± 0.09; for `Cc1cc2nc3ccc(N(C)C)cc3[s+]c2cc1N`: 0.665 ± 0.022.

In turn, `CC(C)(O/N=C(\C(=O)N[C@@H]1C(=O)N2C(C(=O)[O-])=C(C[n+]3ccccc3)CS[C@H]12)c1csc(N)n1)C(=O)O` returned a normalized growth of 0.0782 ± 0.0096. In the case of `CCc1c2c(nc3ccc(OC(=O)N4CCC(N5CCCCC5)CC4)cc13)-c1cc3c(c(=O)n1C2)COC(=O)[C@]3(O)CC`, the normalized growth worked out at 1.01 ± 0.034. The same measure for `C[C@H]1[C@H](NC(=O)/C(=N\OC(C)(C)C(=O)O)c2csc(N)n2)C(=O)N1S(=O)(=O)O`: 0.0891 ± 0.0024; for `CNCCC=C1c2ccccc2CCc2ccccc21`: 1.03 ± 0.053. The same measure for `CCc1cc(C(N)=S)ccn1`: 1.16 ± 0.084. The same measure for `CC(=O)Nc1c(I)c(NC(C)=O)c(I)c(C(=O)O)c1I`: 1.12 ± 0.06; for `CC(=O)Nc1ccc(S(=O)(=O)Nc2ccc([N+](=O)[O-])cc2)cc1`: 0.913 ± 0.049. Compound `Cc1ccc(C(=O)Nc2ccc(S(=O)(=O)O)c3cc(S(=O)(=O)O)cc(S(=O)(=O)O)c23)cc1NC(=O)c1cccc(NC(=O)Nc2cccc(C(=O)Nc3cc(C(=O)Nc4ccc(S(=O)(=O)O)c5cc(S(=O)(=O)O)cc(S(=O)(=O)O)c45)ccc3C)c2)c1` showed a normalized growth of 0.988 ± 0.081. `O=C(N/N=C/c1ccc([N+](=O)[O-])o1)c1ccc(O)cc1` came in with a normalized growth of 0.972 ± 0.071. Take `CN1CCN(C(c2ccccc2)c2ccc(Cl)cc2)CC1` (centres undefined): the normalized growth came out at 1.15 ± 0.052. The value for `C[C@@H]1CN(c2c(F)c(N)c3c(=O)c(C(=O)O)cn(C4CC4)c3c2F)C[C@H](C)N1` was 0.0193 ± 0.0046.

For the compound `C[C@@H]1O[C@@H]1P(=O)(O)O`, the normalized growth turned out to be 0.909 ± 0.032. The same measure for `Cc1ccc(S(=O)(=O)NCl)cc1`: 0.83 ± 0.069; for `CCn1cc(C(=O)O)c(=O)c2cc(F)c(N3CCN(C)CC3)cc21`: 0.0116 ± 0.00051. On to `CCC1=C[C@@H]2CN(C1)Cc1c([nH]c3ccccc13)[C@@](C(=O)OC)(c1cc3c(cc1OC)N(C)[C@H]1[C@@](O)(C(=O)OC)[C@H](OC(C)=O)[C@]4(CC)C=CCN5CC[C@]31[C@@H]54)C2`, for which the normalized growth is 1.47 ± 0.21. `OCc1ccccc1`: the normalized growth was 1.04 ± 0.012.

For the compound `CNC(=C[N+](=O)[O-])NCCSCc1csc(CN(C)C)n1`, the normalized growth is 1.15 ± 0.28.

For the compound `CS(=O)(=O)Nc1ccc([N+](=O)[O-])cc1Oc1ccccc1`, the normalized growth is 1.08 ± 0.035.
